Test results published in publication doi:10.1101/2023.08.11.552966.

By UniProt entry, the sequences of proteins in these tests, tags left out.
UniProt Q06609, whole entry S97A: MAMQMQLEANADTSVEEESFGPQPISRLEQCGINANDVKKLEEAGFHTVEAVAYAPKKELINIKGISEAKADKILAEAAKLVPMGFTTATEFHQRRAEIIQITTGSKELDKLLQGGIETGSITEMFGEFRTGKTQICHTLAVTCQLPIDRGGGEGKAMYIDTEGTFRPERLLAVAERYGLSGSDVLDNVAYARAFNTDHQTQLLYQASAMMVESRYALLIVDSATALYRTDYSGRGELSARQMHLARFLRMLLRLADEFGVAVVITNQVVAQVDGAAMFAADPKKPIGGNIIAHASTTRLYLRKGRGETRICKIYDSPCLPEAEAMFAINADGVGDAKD
UniProt Q06609, whole entry S97D: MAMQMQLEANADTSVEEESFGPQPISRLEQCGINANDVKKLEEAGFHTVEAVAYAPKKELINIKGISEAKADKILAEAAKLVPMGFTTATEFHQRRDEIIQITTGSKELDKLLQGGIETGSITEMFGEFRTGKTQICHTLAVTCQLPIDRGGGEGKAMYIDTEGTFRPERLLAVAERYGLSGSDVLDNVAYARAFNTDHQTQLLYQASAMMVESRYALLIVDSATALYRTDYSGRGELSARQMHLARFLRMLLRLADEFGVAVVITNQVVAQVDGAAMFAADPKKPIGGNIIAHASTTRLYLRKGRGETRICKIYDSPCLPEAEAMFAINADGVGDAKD

Tests used:
[1] = target: RAD51 S97A (non phosphorylable) (Homo sapiens) (UniProt Q06609); assay: BLI; settings: 2 mM ATP
[2] = target: RAD51 S97D (phosphomimetic) (Homo sapiens) (UniProt Q06609); assay: BLI; settings: 2 mM ATP

| Sequence | Kd [1] | Kd [2] |
| --- | --- | --- |
| GCCAUCCGCAAAAAUGACCUCUUAUCAAAAGGA [33m RNA] | 0.32 µM | 1.73 µM |
| TCCTTTTGATAAGAGGTCATTTTTGCGGATGGC [33m DNA] | 0.34 µM | 3.63 µM |

Construct, isoform or probe ends are uncertain for at least one entry.
